# Laboratory results: the supplement of paper PMC7661543
# ± gives the standard deviation of the averaged measurements. The effect of the compound repeats well; differences between the knockouts mostly do not.
# Tested on: HCC-38
# Assay: relative cell number vs DMSO control (72 h) (% of DMSO); higher = less growth inhibition (more cells)
# Procedure: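 QMAP-Seq: a pool of 5 breast cancer cell lines (ZR-75-1, SKBR3, HCC-38, MDA-MB-231, BT-20), each carrying 12 doxycycline-inducible Cas9 sgRNA perturbations (11 knockouts plus non-targeting sgNT), was treated with compounds for 72 h at four 10-fold doses (10 nM-10 uM or 1 nM-1 uM range). Barcodes were amplified and sequenced, and cell number was interpolated from 293T spike-in standard curves. The result is expressed as % of the median of DMSO wells. Two biological replicates.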
# [1] = sgRNA knockout: sgATF3, 1000 nM
# [2] = sgRNA knockout: sgATF3, 10000 nM
# [3] = sgRNA knockout: sgATF4, 1000 nM
# [4] = sgRNA knockout: sgATF4, 10000 nM
# [5] = sgRNA knockout: sgATF6, 1000 nM
# [6] = sgRNA knockout: sgATF6, 10000 nM
# [7] = sgRNA knockout: sgATG7, 1000 nM
# [8] = sgRNA knockout: sgATG7, 10000 nM
# [9] = sgRNA knockout: sgERN1, 1000 nM
# [10] = sgRNA knockout: sgERN1, 10000 nM
# [11] = sgRNA knockout: sgHSF1, 1000 nM
# [12] = sgRNA knockout: sgHSF1, 10000 nM
# [13] = sgRNA knockout: sgHSF2, 1000 nM
# [14] = sgRNA knockout: sgHSF2, 10000 nM
# [15] = sgRNA knockout: sgKEAP1, 100 nM
# [16] = sgRNA knockout: sgKEAP1, 1000 nM
# [17] = sgRNA knockout: sgKEAP1, 10000 nM
# [18] = sgRNA knockout: sgNFE2L2, 10 nM
# [19] = sgRNA knockout: sgNFE2L2, 100 nM
# [20] = sgRNA knockout: sgNFE2L2, 1000 nM
# [21] = sgRNA knockout: sgNFE2L2, 10000 nM
# [22] = sgRNA knockout: sgSLC35F2, 10 nM
# [23] = sgRNA knockout: sgSLC35F2, 100 nM
# [24] = sgRNA knockout: sgSLC35F2, 1000 nM
# [25] = sgRNA knockout: sgSLC35F2, 10000 nM
# [26] = sgRNA knockout: sgXBP1, 1000 nM
# [27] = sgRNA knockout: sgXBP1, 10000 nM
smiles,measurement,setting,value
O=C(CCc1ccc(O)cc1)c1c(O)cc(O)cc1O [Phloretin],relative cell number,"sgRNA knockout: sgATF3, 10 nM",112 ± 6.8
same,relative cell number,"sgRNA knockout: sgATF3, 100 nM",112 ± 8.1
same,relative cell number,[1],112 ± 2.9
same,relative cell number,[2],109 ± 7.5
same,relative cell number,"sgRNA knockout: sgATF4, 10 nM",112 ± 9.1
same,relative cell number,"sgRNA knockout: sgATF4, 100 nM",103 ± 14
same,relative cell number,[3],105 ± 4.1
same,relative cell number,[4],106 ± 17
same,relative cell number,"sgRNA knockout: sgATF6, 10 nM",112 ± 27
same,relative cell number,"sgRNA knockout: sgATF6, 100 nM",118.9 ± 0.63
same,relative cell number,[5],129 ± 3.7
same,relative cell number,[6],110 ± 12
same,relative cell number,"sgRNA knockout: sgATG7, 10 nM",111 ± 5.9
same,relative cell number,"sgRNA knockout: sgATG7, 100 nM",105 ± 5.8
same,relative cell number,[7],106 ± 14
same,relative cell number,[8],104 ± 12
same,relative cell number,"sgRNA knockout: sgERN1, 10 nM",114 ± 4.9
same,relative cell number,"sgRNA knockout: sgERN1, 100 nM",113 ± 14
same,relative cell number,[9],111 ± 1.3
same,relative cell number,[10],126 ± 17
same,relative cell number,"sgRNA knockout: sgHSF1, 10 nM",110 ± 30
same,relative cell number,"sgRNA knockout: sgHSF1, 100 nM",131 ± 11
same,relative cell number,[11],129 ± 18
same,relative cell number,[12],122 ± 8.5
same,relative cell number,"sgRNA knockout: sgHSF2, 10 nM",123 ± 9
same,relative cell number,"sgRNA knockout: sgHSF2, 100 nM",106 ± 19
same,relative cell number,[13],112.5 ± 1.1
same,relative cell number,[14],124 ± 23
same,relative cell number,"sgRNA knockout: sgKEAP1, 10 nM",115 ± 24
same,relative cell number,[15],133 ± 29
same,relative cell number,[16],124.7 ± 1.1
same,relative cell number,[17],121.1 ± 0.71
same,relative cell number,[18],117 ± 5.8
same,relative cell number,[19],97.6 ± 7.9
same,relative cell number,[20],98.9 ± 3.9
same,relative cell number,[21],108 ± 6.3
same,relative cell number,[22],111 ± 9.2
same,relative cell number,[23],108 ± 10
same,relative cell number,[24],102 ± 6.9
same,relative cell number,[25],117 ± 16
same,relative cell number,"sgRNA knockout: sgXBP1, 10 nM",107 ± 14
same,relative cell number,"sgRNA knockout: sgXBP1, 100 nM",114 ± 18
same,relative cell number,[26],104 ± 1.6
same,relative cell number,[27],114 ± 15
Nc1ccn([C@@H]2O[C@H](CO)[C@@H](O)C2(F)F)c(=O)n1 [Gemcitabine],relative cell number,"sgRNA knockout: sgATF3, 10 nM",20.9 ± 0.94
same,relative cell number,"sgRNA knockout: sgATF3, 100 nM",13 ± 3.1
same,relative cell number,[1],11.9 ± 5.5
same,relative cell number,[2],12.5 ± 0.23
same,relative cell number,"sgRNA knockout: sgATF4, 10 nM",19.41 ± 0.091
same,relative cell number,"sgRNA knockout: sgATF4, 100 nM",12.2 ± 1.5
same,relative cell number,[3],13.2 ± 5.7
same,relative cell number,[4],12.9 ± 1.7
same,relative cell number,"sgRNA knockout: sgATF6, 10 nM",19.9 ± 1.3
same,relative cell number,"sgRNA knockout: sgATF6, 100 nM",15 ± 0.19
same,relative cell number,[5],12.3 ± 5.7
same,relative cell number,[6],13.3 ± 2
same,relative cell number,"sgRNA knockout: sgATG7, 10 nM",21.4 ± 3.5
same,relative cell number,"sgRNA knockout: sgATG7, 100 nM",11.7 ± 1.2
same,relative cell number,[7],13.4 ± 6.2
same,relative cell number,[8],11.2 ± 3.1
same,relative cell number,"sgRNA knockout: sgERN1, 10 nM",24.5 ± 3.5
same,relative cell number,"sgRNA knockout: sgERN1, 100 nM",10.2 ± 0.99
same,relative cell number,[9],13.4 ± 4.4
same,relative cell number,[10],12.4 ± 2.9
same,relative cell number,"sgRNA knockout: sgHSF1, 10 nM",31.5 ± 6.8
same,relative cell number,"sgRNA knockout: sgHSF1, 100 nM",18.3 ± 2.7
same,relative cell number,[11],14.1 ± 8.9
same,relative cell number,[12],13.5 ± 0.7
same,relative cell number,"sgRNA knockout: sgHSF2, 10 nM",21.6 ± 5.8
same,relative cell number,"sgRNA knockout: sgHSF2, 100 nM",12.9 ± 3.2
same,relative cell number,[13],12.6 ± 7.1
same,relative cell number,[14],13.8 ± 3.3
same,relative cell number,"sgRNA knockout: sgKEAP1, 10 nM",26 ± 0.88
same,relative cell number,[15],12.3 ± 0.81
same,relative cell number,[16],15.3 ± 2.6
same,relative cell number,[17],17.2 ± 3.5
same,relative cell number,[18],16.1 ± 2
same,relative cell number,[19],10.6 ± 1.2
same,relative cell number,[20],10.6 ± 6
same,relative cell number,[21],10.3 ± 1.5
same,relative cell number,[22],22.2 ± 1.6
same,relative cell number,[23],11.8 ± 0.39
same,relative cell number,[24],14.7 ± 5.8
same,relative cell number,[25],13.2 ± 4.2
same,relative cell number,"sgRNA knockout: sgXBP1, 10 nM",21.8 ± 1.1
same,relative cell number,"sgRNA knockout: sgXBP1, 100 nM",11.5 ± 0.83
same,relative cell number,[26],16.5 ± 3.2
same,relative cell number,[27],11 ± 0.82

# Looked up one by one from the entries so far, 5 records:
smiles,measurement,setting,value
Nc1ccn([C@@H]2O[C@H](CO)[C@@H](O)C2(F)F)c(=O)n1 [Gemcitabine],relative cell number,"sgRNA knockout: sgHSF2, 100 nM",12.9 ± 3.2
same,relative cell number,"sgRNA knockout: sgHSF1, 10 nM",31.5 ± 6.8
same,relative cell number,[15],12.3 ± 0.81
same,relative cell number,[18],16.1 ± 2
O=C(CCc1ccc(O)cc1)c1c(O)cc(O)cc1O [Phloretin],relative cell number,[6],110 ± 12
